# According to PubChem BioAssay AID445 (National Center for Advancing Translational Sciences (NCATS), 2006):
# This is one part of the list. Further columns of the screen follow, without active or inactive calls. Compounds called inactive in the main read-out are mostly missing here. Potencies come from curve fits of mixed quality, noted in brackets.
# Experiment: IkB Signaling
# Conditions: ABC-DLBCL IkBa-CBG/CBR dual luciferase ratio (green luciferase fused to IkBa over red control in OCI-Ly3 lymphoma cells), 4 h
# Summary of the method: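 Curves were fitted separately to fusion (green), unfused (red) and ratio luminescence, then classed by r2, magnitude and activity. Cells: OCI-Ly3, 4 h compound plus doxycycline at 37C; 10 uM MG-132 defined full response.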
# [1] = measured here: control luc red channel unless noted
# [2] = measured here: IkB-luc green channel
# [3] = measured here: control luc red channel
smiles,measurement,setting,value
CCCCN(CCCC)S(=O)(=O)c1ccc2oc(C(=O)NCc3ccccc3)c(C)c2c1,AC50,[1],"10 µM [falling, partial curve, poor fit]"
Cc1cc(C)c(/C=C/c2onc(C)c2S(=O)(=O)N2CCC(C(=O)NCc3ccco3)CC2)c(C)c1,AC50,[1],"10 µM [falling, partial curve]"
CCOC(=O)N1CCN(C(=O)CN(c2ccc(C)cc2C)S(=O)(=O)c2ccccc2)CC1,AC50,[1],"12.6 µM [falling, partial curve]"
Cc1cccc(NC(=O)CSc2nc(C)c(Cc3ccccc3)c(=O)[nH]2)c1,AC50,[1],"25.1 µM [falling, partial curve]"
COc1ccccc1N1CCN(C(=O)c2c3c(nc4ccccc24)C(=O)N(C2CCCCC2)C3)CC1,AC50,[1],"20 µM [falling, single point]"
CCC(C)NC(=O)c1sc2nc(C)c(C(=O)Nc3ccc(Cl)cc3)c(-c3ccc(Br)cc3)c2c1N (configuration not stated),AC50,[1],"7.94 µM [falling, full curve]"
COc1ccc(-c2onc(C)c2C)cc1S(=O)(=O)N1CCC(C)CC1,AC50,[1],"39.8 µM [falling, single point]"
COc1ccccc1CCNC(=O)c1cccn1-c1nnc(N2CCCCC2)s1,AC50,[1],"25.1 µM [falling, single point]"
CCOc1ccccc1NC(=O)CSc1cc(=O)n(CC)c2ccccc12,AC50,[1],"39.8 µM [falling, single point]"
O=c1n(CC2CO2)c(=O)n(CC2CO2)c(=O)n1CC1CO1 (configuration not stated),AC50,[1],"31.6 µM [rising, partial curve] [measured here: IkB-luc green channel]"
Cc1cccc2sc(N3CCN(C(=O)c4ccco4)CC3)nc12,AC50,[1],"3.16 µM [rising, partial curve]"
FC(F)(F)c1cc(CO[C@H]2CCCN[C@H]2c2ccccc2)cc(C(F)(F)F)c1,AC50,[1],"39.8 µM [falling, partial curve]"
Cc1cc(NC(=O)C2CCCN(S(=O)(=O)c3cccc4nonc34)C2)ccc1Br (configuration not stated),AC50,[1],"39.8 µM [falling, single point]"
COc1ccc(OC)c(CNCc2c(C(=O)O)n(Cc3ccccc3)c3cc(OC)ccc23)c1,AC50,[1],"10 µM [falling, partial curve]"
COc1ccc2nc(NC(=O)c3cnccn3)sc2c1,AC50,[1],"2.51 µM [falling, full curve]"
O=C1Nc2ccccc2Oc2cc(Oc3ccc(Cl)cc3)ccc21,AC50,[1],"0.631 µM [falling, full curve, poor fit]"
CCC(=O)N1CCc2cc(S(=O)(=O)NC(CC(C)C)C(=O)Nc3ccc(CC)cc3)ccc21 (configuration not stated),AC50,[1],"15.8 µM [falling, partial curve]"
CCOC(=O)c1ccc(NC(=O)C2CCCN(c3ncnc4onc(C)c34)C2)cc1 (configuration not stated),AC50,[1],"39.8 µM [falling, single point]"
COc1cccc(-c2nc(CS(=O)CC(=O)NCc3ccc4c(c3)OCO4)c(C)o2)c1 (configuration not stated),AC50,[1],"12.6 µM [falling, partial curve]"
COc1ccc(NC(=O)N2CCN(c3nc(-c4cccc(OC)c4)cs3)CC2)cc1,AC50,[2],"31.6 µM [falling, partial curve]"
same,AC50,[3],"15.8 µM [falling, partial curve]"
CCc1ccc(-c2nc(SCC(=O)NCCOC)c(-c3ccc(C)cc3)[nH]2)cc1,AC50,[1],"20 µM [falling, partial curve, poor fit]"
CCc1ccc(CNc2nc3nc(C)c(Cc4ccccc4)c(=O)n3[nH]2)cc1,AC50,[1],"20 µM [falling, single point]"
CCc1ccc(CN2CCc3nc(Nc4ccc5c(c4)OCCO5)ncc3C2)cc1,AC50,[1],"25.1 µM [falling, single point]"
CC(=O)c1cccc(NC(=O)C2=CC(c3ccco3)=NS(=O)(=O)N2C)c1,AC50,[1],"25.1 µM [falling, single point]"
COc1ccc(Nc2nnc(-c3ccc(C)c(S(N)(=O)=O)c3)c3ccccc23)cc1,AC50,[1],"10 µM [falling, partial curve]"
COc1ccc(CCNc2oc(COc3ccc(Cl)cc3)nc2C#N)cc1OC,AC50,[1],"12.6 µM [falling, partial curve]"
CCc1ccc2nc(N3CCN(C(=O)c4ccco4)CC3)sc2c1,AC50,[1],"2 µM [rising, partial curve]"
COc1ccc(Cl)cc1N(C)C(=O)Cn1cnc2sc(C)c(S(=O)(=O)N3CCN(c4ncccn4)CC3)c2c1=O,AC50,[1],"25.1 µM [falling, partial curve, poor fit]"
Cc1ccc(C)c(CN2C(=O)c3ccccc3S(=O)(=O)c3ccc(C(=O)N4CCOCC4)cc32)c1,AC50,[1],"0.631 µM [falling, full curve]"
CCC(=O)c1cc(F)c(N2CCN(C(=O)Cc3ccccc3)CC2)cc1C,AC50,[1],"12.6 µM [falling, partial curve]"
Cn1c(=O)c2c(nc(NC3CCCCC3)n2Cc2ccccc2)n(C)c1=O,AC50,[1],"12.6 µM [falling, partial curve]"
CCOc1ccccc1CNC(=O)CCCN1C(=O)CCn2nc(-c3cccn3C)cc21,AC50,[1],"39.8 µM [falling, single point]"
Cc1ccc(CNC(=O)C2CCN(S(=O)(=O)c3ccc4c(c3)oc(=O)n4C)CC2)cc1,AC50,[1],"3.16 µM [falling, partial curve, poor fit]"
COc1ccccc1C1=Nn2c(nnc2C2CCCCC2)SC1,AC50,[1],"15.8 µM [falling, partial curve]"
Cn1c2ccccc2c2ncn(CCC3=CCCCC3)c(=O)c21,AC50,[1],"25.1 µM [falling, single point]"
CCOC(=O)c1c(C)[nH]c(C)c1S(=O)(=O)N1CCCC(C(=O)N2CCN(c3cc(C)ccc3C)CC2)C1 (configuration not stated),AC50,[1],"3.16 µM [falling, single point]"
CCCCNC(=O)C(CC)Sc1nnc(-c2ccc(OC)c(OC)c2)c(-c2ccc(OC)c(OC)c2)n1 (configuration not stated),AC50,[1],"2 µM [rising, partial curve]"
Cc1ccc(-c2ccc(=O)n(C(C)C(=O)Nc3ccccc3Cl)n2)cc1C (configuration not stated),AC50,[1],"39.8 µM [falling, single point]"
CC1CCc2nc3ncn(CC(=O)Nc4cccc(C#N)c4)c(=O)c3cc2C1 (configuration not stated),AC50,[1],"0.0631 µM [falling, full curve, poor fit]"
COc1ccc(S(=O)(=O)N(CC(=O)N2CCC(C)CC2)c2ccc(C)cc2)cc1,AC50,[1],"31.6 µM [falling, single point]"
CCOC(=O)Cc1csc(NC(=O)COc2ccccc2OC)n1,AC50,[1],"12.6 µM [falling, partial curve]"
CCc1ccccc1Nc1nn2c(=O)c3ccc(C(=O)Nc4cc(C)cc(C)c4)cc3nc2s1,AC50,[1],"39.8 µM [falling, single point]"
Cc1occc1-c1nnc(SCC(=O)NCCc2ccccc2)n1Cc1ccccc1,AC50,[1],"31.6 µM [falling, single point]"
CCOC(=O)c1cccc(NC(=O)CCCn2c(C)c3cnn(-c4ccccc4)c(=O)c3c2C)c1,AC50,[1],"25.1 µM [falling, partial curve]"
COc1cc(C2CC(=O)Nc3c2c(=O)n(C)c(=O)n3C)cc(OC)c1OC (configuration not stated),AC50,[1],"31.6 µM [rising, single point]"
CCCCn1c(CNC(=O)c2ccc(OC)cc2)nnc1SCC(=O)Nc1ccccc1,AC50,[1],"25.1 µM [falling, single point]"
CC(=O)N1CCN(S(=O)(=O)c2cccc(C(=O)Nc3nc4ccccc4[nH]3)c2)CC1,AC50,[1],"31.6 µM [falling, partial curve]"
Cc1ccc(CNC(=O)CCC(=O)N2CC(C)Sc3ccccc32)cc1 (configuration not stated),AC50,[1],"15.8 µM [falling, single point]"
Cc1ccc(NC(=O)c2cc3c(=O)[nH]c4ccccc4c3n2C)cc1F,AC50,[1],"5.01 µM [rising, partial curve]"
S=c1nc2ccccc2c2nc(-c3ccccc3)[nH]n12,AC50,[2],"10 µM [rising, partial curve]"
same,AC50,[3],"25.1 µM [falling, single point]"
CC(C)N(C(=O)Cn1cc(S(=O)(=O)Cc2ccc(C(F)(F)F)cc2)c2ccccc21)C(C)C,AC50,[1],"31.6 µM [falling, single point]"
CCC(=O)O[C@@]1(C(=O)SCF)[C@@H](C)C[C@H]2[C@@H]3C[C@@H](F)C4=CC(=O)C=C[C@@]4(C)[C@]3(F)[C@@H](O)C[C@]21C,AC50,[1],"158 nM [rising, full curve] [measured here: IkB-luc green channel]"
COc1ccc2c(Sc3ccc(Cl)cc3)c(C(=O)NCCCN3CCCCC3)[nH]c2c1,AC50,[1],"12.6 µM [falling, partial curve]"
Cc1cccc(NC(=O)CSc2nc3c([nH]c4ccccc43)c(=O)n2C)c1,AC50,[1],"0.251 µM [falling, full curve]"
Cc1ccc(CN(C(=O)COc2ccc(C)c(C)c2)C2CCS(=O)(=O)C2)o1 (configuration not stated),AC50,[1],"20 µM [falling, partial curve]"
COc1ccc(S(=O)(=O)Nc2cc(-c3cn4ccccc4n3)ccc2C)cc1,AC50,[1],"0.2 µM [rising, full curve]"
COc1ccc(OCc2nnc(-c3ccccc3)o2)cc1,AC50,[1],"0.0398 µM [rising, full curve, poor fit]"
Cc1nn(C)c2c1c(C(F)(F)F)cc(=O)n2CC(=O)NCc1ccccc1Cl,AC50,[1],"15.8 µM [falling, single point]"
Cc1cc(F)ccc1NC(=O)c1sc2nc(-c3cccs3)ccc2c1N,AC50,[1],"5.01 µM [falling, full curve]"
CCOc1ccccc1NC(=O)C(C)Sc1nc2c(c(=O)[nH]1)CCCC2 (configuration not stated),AC50,[1],"12.6 µM [falling, single point]"

# A different layout for some results above:
smiles | measurement | setting | value
O=c1n(CC2CO2)c(=O)n(CC2CO2)c(=O)n1CC1CO1 (configuration not stated) | AC50 | [1] | 31.6 µM [rising, partial curve] [measured here: IkB-luc green channel]
COc1ccc(CCNc2oc(COc3ccc(Cl)cc3)nc2C#N)cc1OC | AC50 | [1] | 12.6 µM [falling, partial curve]
